The target in test [1] is Mec1(b) (Mec1 with C-terminal S6 sequence and 3xFLAG tag) (S. cerevisiae) (UniProt P38111). In words: co-IP; FLAG-Ab beads in lysate of yeast co-overexpressing Mec1-3xFLAG and Ddc2; washes in Buffer A + 1 M NaCl + 1 mM ATP + 4 mM MgCl2; elution with 0.2 mg/mL FLAG peptide; fractions on SDS-PAGE.
Test [2] concerns the target Mec1(a) (Mec1 with C-terminal PreScission protease site and 3xFLAG tag) (S. cerevisiae) (UniProt P38111). The description is as above.

Amino acid sequences for entries named in this document (tags omitted).
UniProt P38111: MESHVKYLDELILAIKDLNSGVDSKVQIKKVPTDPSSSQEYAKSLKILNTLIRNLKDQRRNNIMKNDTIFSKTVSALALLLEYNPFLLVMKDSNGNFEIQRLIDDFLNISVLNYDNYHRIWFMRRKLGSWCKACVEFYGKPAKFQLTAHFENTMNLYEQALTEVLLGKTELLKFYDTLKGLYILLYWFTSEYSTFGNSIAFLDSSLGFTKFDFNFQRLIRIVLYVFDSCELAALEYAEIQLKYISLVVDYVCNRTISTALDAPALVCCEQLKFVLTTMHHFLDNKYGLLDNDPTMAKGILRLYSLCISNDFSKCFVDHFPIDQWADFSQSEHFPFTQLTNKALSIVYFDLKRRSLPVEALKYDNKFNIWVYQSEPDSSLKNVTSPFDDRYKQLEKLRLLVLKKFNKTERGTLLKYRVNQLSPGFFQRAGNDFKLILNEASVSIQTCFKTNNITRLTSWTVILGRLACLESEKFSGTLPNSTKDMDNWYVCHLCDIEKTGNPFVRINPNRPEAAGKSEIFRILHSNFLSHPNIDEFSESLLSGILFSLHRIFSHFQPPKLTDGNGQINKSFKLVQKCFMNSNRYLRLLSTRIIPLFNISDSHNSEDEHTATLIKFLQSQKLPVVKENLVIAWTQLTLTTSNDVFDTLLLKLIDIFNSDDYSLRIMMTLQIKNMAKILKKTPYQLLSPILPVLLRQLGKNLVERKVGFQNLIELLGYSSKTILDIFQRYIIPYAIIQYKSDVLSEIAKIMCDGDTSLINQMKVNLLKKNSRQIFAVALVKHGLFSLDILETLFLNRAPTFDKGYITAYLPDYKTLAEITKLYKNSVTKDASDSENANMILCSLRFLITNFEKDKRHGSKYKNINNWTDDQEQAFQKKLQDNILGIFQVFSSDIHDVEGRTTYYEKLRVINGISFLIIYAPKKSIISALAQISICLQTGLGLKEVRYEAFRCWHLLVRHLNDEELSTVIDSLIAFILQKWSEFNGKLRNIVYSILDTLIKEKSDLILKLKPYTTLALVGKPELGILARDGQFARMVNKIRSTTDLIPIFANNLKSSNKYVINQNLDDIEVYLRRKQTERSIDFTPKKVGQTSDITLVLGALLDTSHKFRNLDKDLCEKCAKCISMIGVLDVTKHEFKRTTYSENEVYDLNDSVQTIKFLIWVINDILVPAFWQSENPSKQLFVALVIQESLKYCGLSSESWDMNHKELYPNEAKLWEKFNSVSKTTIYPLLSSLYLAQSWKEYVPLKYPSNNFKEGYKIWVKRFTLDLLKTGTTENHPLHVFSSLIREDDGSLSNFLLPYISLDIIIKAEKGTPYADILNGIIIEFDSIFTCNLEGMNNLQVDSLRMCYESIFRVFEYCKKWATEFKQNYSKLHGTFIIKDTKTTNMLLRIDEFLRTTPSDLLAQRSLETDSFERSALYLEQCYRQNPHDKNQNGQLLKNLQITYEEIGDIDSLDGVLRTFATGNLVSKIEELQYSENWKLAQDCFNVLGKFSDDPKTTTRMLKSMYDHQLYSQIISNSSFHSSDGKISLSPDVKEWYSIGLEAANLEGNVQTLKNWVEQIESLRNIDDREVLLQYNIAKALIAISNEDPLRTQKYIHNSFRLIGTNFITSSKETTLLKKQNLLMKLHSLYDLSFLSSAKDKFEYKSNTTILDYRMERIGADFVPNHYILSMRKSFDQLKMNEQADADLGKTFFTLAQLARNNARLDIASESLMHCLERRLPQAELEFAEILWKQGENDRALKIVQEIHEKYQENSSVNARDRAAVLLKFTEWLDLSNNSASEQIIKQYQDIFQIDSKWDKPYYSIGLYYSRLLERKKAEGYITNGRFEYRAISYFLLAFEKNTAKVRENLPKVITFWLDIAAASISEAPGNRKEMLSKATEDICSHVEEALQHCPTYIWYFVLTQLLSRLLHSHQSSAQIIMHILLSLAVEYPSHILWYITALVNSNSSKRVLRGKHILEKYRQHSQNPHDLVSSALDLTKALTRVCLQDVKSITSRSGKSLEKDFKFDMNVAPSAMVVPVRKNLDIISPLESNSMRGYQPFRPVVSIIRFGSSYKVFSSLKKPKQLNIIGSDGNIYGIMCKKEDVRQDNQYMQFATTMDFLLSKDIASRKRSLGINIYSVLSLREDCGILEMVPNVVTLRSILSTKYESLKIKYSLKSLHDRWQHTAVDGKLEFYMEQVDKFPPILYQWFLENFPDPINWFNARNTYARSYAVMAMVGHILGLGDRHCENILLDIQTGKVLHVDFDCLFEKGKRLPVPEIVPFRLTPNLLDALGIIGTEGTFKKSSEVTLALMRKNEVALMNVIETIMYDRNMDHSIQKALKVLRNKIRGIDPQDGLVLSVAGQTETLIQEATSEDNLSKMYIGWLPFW

No constants are given. Whether binding was seen depends on the method and setting. Binding seen in cells or lysates may run through a third protein. Some binding calls cover weakened binding; strength is not graded here.

B1: Ddc2 (protein, UniProt Q04377 1-747)
chain: MRRETVGEFSSDDDDDILLELGTRPPRFTQIPPSSAALQTQIPTTLEVTTTTLNNKQSKNDNQLVNQLNKAQGEASMLRDKINFLNIEREKEKNIQAVKVNELQVKHLQELAKLKQELQKLEDEKKFLQMEARGKSKREVITNVKPPSTTLSTNTNTITPDSSSVAIEAKPQSPQSKKRKISDNLLKKNMVPLNPNRIIPDETSLFLESILLHQIIGADLSTIEILNRLKLDYITEFKFKNFVIAKGAPIGKSIVSLLLRCKKTLTLDRFIDTLLEDIAVLIKEISVHPNESKLAVPFLVALMYQIVQFRPSATHNLALKDCFLFICDLIRIYHHVLKVPIHESNMNLHVEPQIFQYELIDYLIISYSFDLLEGILRVLQSHPKQTYMEFFDENILKSFEFVYKLALTISYKPMVNVIFSAVEVVNIITSIILNMDNSSDLKSLISGSWWRDCITRLYALLEKEIKSGDVYNENVDTTTLHMSKYHDFFGLIRNIGDNELGGLISKLIYTDRLQSVPRVISKEDIGMDSDKFTAPIIGYKMEKWLLKLKDEVLNIFENLLMIYGDDATIVNGEMLIHSSKFLSREQALMIERYVGQDSPNLDLRCHLIEHTLTIIYRLWKDHFKQLREEQIKQVESQLIMSLWRFLVCQTETVTANEREMRDHRHLVDSLHDLTIKDQASYYEDAFEDLPEYIEEELKMQLNKRTGRIMQVKYDEKFQEMARTILESKSFDLTTLEEADSLYISMGL
For the molecule B1, the binding entry in test [1] and in test [2] was “binds” throughout.
